Molecules are shown by their SMILES. In all, about 2,200 compounds went through this assay and about 15 (0.7%) were called active.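 The calls were made as follows: active = fitted half-maximal concentration for loss of luminescence signal no more than a set limit of log units above the top tested concentration; inconclusive = flat fit with 30 to 70% signal loss, or invalid fit; inactive = half-maximal concentration above that set limit.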 This is one part of the list.

A short description of this assay: inhibitors of ADP-Glo detection reagents, dose response, artefact control for GSK3beta inhibitor project, biochemical, luminescence, cell-free, homogeneous (AID 434947).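 Also: kinase-free counter screen of ADP-Glo detection reagents for GSK3beta hits.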 The settings on record: 5 uM ADP. For orientation: ADP-Glo turns the ADP formed in a reaction into a luminescent signal.
For the compound `O=C1NC(c2cccnc2)Nc2sc3c(c21)CCCC3` (stereo not given), the EC50 (commonly the concentration giving half of the maximal effect) is inactive: > 30 µM.

For the compound `C[C@H]1CCCC(=O)CCC/C=C/c2cc(O)cc(O)c2C(=O)O1`, the EC50 is inactive: > 30 µM. `CC(C)=CCc1c(O)cc2c(c1O)C(=O)CC(c1ccc(O)cc1)O2` (stereo not given): the EC50 is inactive: > 30 µM.

For `CC(C)n1c(O)c(C=NCc2cccnc2)c(=O)[nH]c1=S`, the EC50 is inactive: > 30 µM. To `Cc1cc2c(s1)NC(=O)CN=C2c1cccs1` belongs inactive: > 30 µM; to `COc1cc(CN=Cc2c(O)n(C(C)(C)C)c(=O)[nH]c2=O)cc(OC)c1`, inactive: > 30 µM. `CCOc1ccccc1NC(=O)N1CCC2(CC1)OCCO2`: the EC50 was inactive: > 30 µM.

As to `CN1CCN(c2ccc([N+](=O)[O-])cc2Cl)CC1`, the EC50 is inactive: > 30 µM.

As for `Cn1ncnc2c(=O)n(C)c(=O)nc1-2`, the EC50 is inactive: > 30 µM. With `C=CCN1C(=O)NC(=O)/C(=C/c2ccc(OCC(=O)Nc3ccc(C)cc3)cc2)C1=O`, the EC50 is inactive: > 30 µM. With `CCOC(=O)Cc1csc(NC(=O)c2c(O)c3ccccc3n(CCC(C)C)c2=O)n1`, the EC50 was inactive: > 30 µM. For the compound `O=C(O)CCn1cc(C=C2C(=O)NC(=S)NC2=O)c(-c2ccccc2)n1`, the EC50 is inactive: > 30 µM. Then `CCCCCCn1c(O)c(C=NCCCn2ccnc2)c(=O)[nH]c1=O`, with inactive: > 30 µM; and `O=c1[nH]c(=O)n(Cc2ccc(F)cc2)c(O)c1C=NCCN1CCCCC1`, with inactive: > 30 µM; and `COc1ccc2c(c1)/C(=C/c1cnc[nH]1)C(=O)N2`, with inactive: > 30 µM. Regarding `Nc1ncnc2c1ccn2[C@@H]1O[C@H](CO)[C@@H](O)[C@H]1O`, the EC50 is inactive: > 30 µM.

For `Cc1ccc2c(c1)C1CN(C)CCC1N2C(=O)Nc1cccc(Cl)c1` (stereo not given), the EC50 is inactive: > 30 µM. For `COc1ccc(CC(=O)N2C[C@H]3C[C@@H](C2)c2cccc(=O)n2C3)cc1`, the EC50 was inactive: > 30 µM. Then `Clc1ccccc1CN1CCN(c2cccc3[nH]ccc23)CC1`, with inactive: > 30 µM; and `Cc1ccc(NC(=O)c2ccc(C)c(S(=O)(=O)N3CCCCC3)c2)nc1`, with inactive: > 30 µM. Consider `NC(=S)c1cn(C2OC(CO)C(O)C2O)c2ncnc(N)c12` (stereo not given), for which the EC50 is inactive: > 30 µM. For the compound `CC(=O)Nc1ccccc1C(=O)OCc1ccc(C(=O)c2ccccc2)cc1`, the EC50 is inactive: > 30 µM. To `CN1CCN(c2cc([N+](=O)[O-])ccc2Cl)CC1` belongs inactive: > 30 µM; to `N#CCCn1cc(C(=O)O)c(-c2cccc([N+](=O)[O-])c2)n1`, inactive: > 30 µM; to `CCc1cc2c(s1)NC(=O)CN=C2c1cccs1`, inactive: > 30 µM. In the case of `Cc1nonc1-c1nc(-c2nonc2N)n[nH]1`, the EC50 is inactive: > 30 µM.

Turning to `O=c1[nH]c(=O)n(CCc2ccc(F)cc2)c(O)c1/C=N/N1CCCCC1`, the EC50 is inactive: > 30 µM. As to `O=C1Nc2ccccc2/C1=C/c1cnc[nH]1`, the EC50 was inactive: > 30 µM. Consider `O=c1[nH]c2ccccc2c(=O)n1-c1ccc(Cl)cc1Cl`, for which the EC50 was inactive: > 30 µM. As to `COc1cc2c(cc1O)C[C@H]1NCCc3cc4c(c-2c31)OCO4`, the EC50 is inactive: > 30 µM. Then `CC[n+]1c(/C=C/N(C)c2ccccc2)sc2ccc(Cl)cc21`, with inactive: > 30 µM; and `O=C1CN=C(c2ccccc2)c2c(sc3c2CCCC3)N1`, with inactive: > 30 µM. To `O=C1CN=C(c2cccs2)c2c(sc3c2CCCC3)N1` belongs inactive: > 30 µM. As to `O=c1[nH]c(=S)n(-c2ccccc2F)c(O)c1C=NCc1ccco1`, the EC50 was inactive: > 30 µM. To `C[C@H]1[C@@H](c2ccccc2)O[C@@H](c2ccccc2Br)N1C` belongs inactive: > 30 µM.

For the origin of these results see PubChem BioAssay AID434947 (Broad Institute, 2010).
